Results: PMC4751435
Results are given in words; binding and its absence hold for the method and conditions named. Binding seen in cells or lysates may run through a third protein. Some binding calls cover weakened binding; strength is not graded here. For some of these results: Tags and fused reporters may be left off the sequences shown.

By UniProt entry, the sequences of proteins in these tests, tags left out. Where a name states a change or a piece, a line headed by the entry shows the natural chain unless it says otherwise. Residues count along the entry.
UniProt P63165, residues 1-97: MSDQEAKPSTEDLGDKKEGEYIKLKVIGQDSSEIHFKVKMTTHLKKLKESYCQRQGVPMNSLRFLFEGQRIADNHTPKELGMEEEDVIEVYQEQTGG
UniProt P61956: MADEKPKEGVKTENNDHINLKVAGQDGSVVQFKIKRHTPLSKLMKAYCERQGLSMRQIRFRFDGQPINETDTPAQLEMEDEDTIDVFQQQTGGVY
UniProt O15409: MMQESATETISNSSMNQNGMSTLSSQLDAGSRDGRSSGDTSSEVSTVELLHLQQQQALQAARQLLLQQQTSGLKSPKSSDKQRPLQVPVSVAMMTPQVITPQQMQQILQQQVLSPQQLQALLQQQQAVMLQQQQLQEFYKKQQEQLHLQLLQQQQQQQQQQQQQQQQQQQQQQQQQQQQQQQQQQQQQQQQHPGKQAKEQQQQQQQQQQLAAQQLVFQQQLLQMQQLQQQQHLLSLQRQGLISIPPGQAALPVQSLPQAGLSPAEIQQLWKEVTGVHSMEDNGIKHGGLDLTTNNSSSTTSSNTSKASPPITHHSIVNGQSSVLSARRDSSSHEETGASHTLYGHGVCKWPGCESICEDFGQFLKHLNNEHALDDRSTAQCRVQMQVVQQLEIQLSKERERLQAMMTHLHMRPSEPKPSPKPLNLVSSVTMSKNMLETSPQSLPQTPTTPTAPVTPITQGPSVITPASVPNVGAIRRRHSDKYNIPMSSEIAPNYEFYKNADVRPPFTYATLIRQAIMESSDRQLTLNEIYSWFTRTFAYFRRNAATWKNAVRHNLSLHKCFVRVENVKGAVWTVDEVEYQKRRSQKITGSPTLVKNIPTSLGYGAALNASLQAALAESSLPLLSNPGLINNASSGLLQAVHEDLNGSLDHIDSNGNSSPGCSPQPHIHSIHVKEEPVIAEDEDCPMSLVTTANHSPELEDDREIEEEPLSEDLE
UniProt O75925: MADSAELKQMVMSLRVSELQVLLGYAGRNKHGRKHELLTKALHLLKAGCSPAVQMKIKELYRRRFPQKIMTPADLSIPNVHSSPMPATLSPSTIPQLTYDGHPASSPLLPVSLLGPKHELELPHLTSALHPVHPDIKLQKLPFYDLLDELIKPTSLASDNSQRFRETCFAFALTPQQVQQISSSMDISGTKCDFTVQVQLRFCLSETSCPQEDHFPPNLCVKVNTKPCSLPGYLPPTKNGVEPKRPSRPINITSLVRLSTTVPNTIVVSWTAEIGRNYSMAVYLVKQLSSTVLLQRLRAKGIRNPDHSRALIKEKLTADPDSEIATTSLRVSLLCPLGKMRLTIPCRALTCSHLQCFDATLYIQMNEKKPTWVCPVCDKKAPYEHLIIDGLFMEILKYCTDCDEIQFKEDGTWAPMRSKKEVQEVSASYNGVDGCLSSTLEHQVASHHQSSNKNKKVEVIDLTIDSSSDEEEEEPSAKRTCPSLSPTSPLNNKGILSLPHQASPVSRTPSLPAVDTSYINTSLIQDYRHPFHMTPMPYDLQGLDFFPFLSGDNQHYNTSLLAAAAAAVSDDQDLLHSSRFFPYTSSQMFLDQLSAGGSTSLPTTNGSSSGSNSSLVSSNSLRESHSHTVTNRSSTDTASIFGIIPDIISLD
UniProt O75928: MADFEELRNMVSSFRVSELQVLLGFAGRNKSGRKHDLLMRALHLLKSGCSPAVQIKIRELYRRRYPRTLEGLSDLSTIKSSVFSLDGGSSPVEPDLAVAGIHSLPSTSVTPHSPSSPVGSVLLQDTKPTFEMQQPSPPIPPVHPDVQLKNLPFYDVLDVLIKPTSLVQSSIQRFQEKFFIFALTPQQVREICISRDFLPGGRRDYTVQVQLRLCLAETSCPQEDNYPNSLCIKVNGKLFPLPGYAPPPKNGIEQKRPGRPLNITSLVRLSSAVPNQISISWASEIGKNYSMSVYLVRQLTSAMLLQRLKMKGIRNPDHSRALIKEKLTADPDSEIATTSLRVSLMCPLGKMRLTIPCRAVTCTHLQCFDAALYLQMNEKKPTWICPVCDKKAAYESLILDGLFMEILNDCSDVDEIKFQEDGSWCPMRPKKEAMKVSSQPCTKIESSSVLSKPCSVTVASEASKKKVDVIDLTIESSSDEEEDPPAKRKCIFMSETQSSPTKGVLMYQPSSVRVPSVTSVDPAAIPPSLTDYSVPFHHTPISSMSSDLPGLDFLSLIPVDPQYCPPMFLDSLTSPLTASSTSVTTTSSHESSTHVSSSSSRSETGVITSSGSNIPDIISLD

How the values were obtained:
Test in all cases: FRET or BRET; BRET in live HEK293 cells transfected with a Renilla luciferase fusion (donor) and a YFP fusion (acceptor); control donor a nuclear-targeted luciferase; mean corrected BRET ratios, n = 3
[1] = molecular target: YFP-SUMO1 (wild-type, GG) (human) (UniProt P63165)
YFP-PIAS4 (human) = molecular target: T1, YFP-PIAS4 (human) (UniProt Q8N2W9)
T1 sequence: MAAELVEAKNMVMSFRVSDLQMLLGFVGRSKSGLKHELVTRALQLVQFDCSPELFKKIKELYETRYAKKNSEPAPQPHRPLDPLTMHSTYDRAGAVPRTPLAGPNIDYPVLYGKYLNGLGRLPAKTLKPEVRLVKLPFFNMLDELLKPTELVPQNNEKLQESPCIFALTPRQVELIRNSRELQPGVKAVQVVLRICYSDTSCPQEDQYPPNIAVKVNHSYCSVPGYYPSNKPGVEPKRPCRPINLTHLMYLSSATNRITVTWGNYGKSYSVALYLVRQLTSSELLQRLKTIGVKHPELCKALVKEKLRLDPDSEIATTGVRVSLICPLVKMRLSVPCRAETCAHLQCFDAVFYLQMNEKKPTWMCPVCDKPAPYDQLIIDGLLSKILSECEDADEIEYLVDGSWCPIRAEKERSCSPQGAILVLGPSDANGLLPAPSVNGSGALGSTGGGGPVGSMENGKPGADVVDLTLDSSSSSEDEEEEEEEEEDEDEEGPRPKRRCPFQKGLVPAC

[2] = molecular target: YFP-SUMO2 (wild-type, GG) (human) (UniProt P61956)
YFP-PIAS3 (human) = molecular target: T2, YFP-PIAS3 (human) (UniProt Q9Y6X2)
T2 sequence: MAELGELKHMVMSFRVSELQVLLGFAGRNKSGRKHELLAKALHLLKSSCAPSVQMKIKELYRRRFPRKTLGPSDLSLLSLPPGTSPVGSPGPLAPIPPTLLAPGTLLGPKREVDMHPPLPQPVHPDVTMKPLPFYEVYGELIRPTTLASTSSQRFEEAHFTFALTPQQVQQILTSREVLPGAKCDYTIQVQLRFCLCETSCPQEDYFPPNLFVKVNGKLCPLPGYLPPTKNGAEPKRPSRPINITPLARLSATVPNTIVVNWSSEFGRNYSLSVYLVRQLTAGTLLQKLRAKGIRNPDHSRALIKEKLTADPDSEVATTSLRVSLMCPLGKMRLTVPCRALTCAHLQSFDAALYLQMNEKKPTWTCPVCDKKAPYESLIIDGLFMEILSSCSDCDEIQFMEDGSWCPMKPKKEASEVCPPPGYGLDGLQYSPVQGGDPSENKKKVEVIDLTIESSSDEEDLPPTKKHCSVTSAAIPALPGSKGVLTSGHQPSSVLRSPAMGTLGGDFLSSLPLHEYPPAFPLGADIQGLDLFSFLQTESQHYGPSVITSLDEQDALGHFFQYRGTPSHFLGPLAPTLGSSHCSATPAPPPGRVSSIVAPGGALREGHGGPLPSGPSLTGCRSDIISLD

[3] = molecular target: YFP-FOXP2 (wild-type) (human) (UniProt O15409)
[4] = molecular target: YFP-PIAS1 (wild-type) (human) (UniProt O75925)
YFP-PIAS2 (human) = YFP-PIAS2 (human) (UniProt O75928)

Substance | binding [1] | binding (YFP-PIAS4 (human)) | binding [2] | binding (YFP-PIAS3 (human)) | binding [3] | binding [4] | binding (YFP-PIAS2 (human))
luciferase-FOXP2 truncation 1-258 (from UniProt O15409 1-258) (domain or fragment) |  |  |  |  |  | binds | 
luciferase-FOXP2 truncation 1-329 (from UniProt O15409 1-329) (domain or fragment) |  |  |  |  |  | binds | 

Results, then the substance that gave them:

binding [1] | binding (YFP-PIAS4 (human)) | binding [2] | binding (YFP-PIAS3 (human)) | binding [3] | binding [4] | binding (YFP-PIAS2 (human)) | Substance
binds | binds | binds | binds | binds | binds | binds weakly | luciferase-FOXP2 (wild-type, full-length 1-715) (from UniProt O15409 1-715)
 |  | binds |  | binds |  |  | luciferase-FOXP2 K674R mutant (from UniProt O15409 1-715)
 |  |  |  | binds | binds |  | luciferase-FOXP2 truncation 1-487 (from UniProt O15409 1-487) (domain or fragment)
